Experimental data from the supplement of paper PMC12889115.
Some of the results follow. These are raw signals, not scaled to a control.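 In the initial screen, polymyxin B was used at a concentration that permeabilizes Salmonella's outer membrane but not its inner membrane. Maximum growth was set by DMSO wells with or without polymyxin B. Since plates varied, data were ranked per plate, and compounds giving the lowest OD600 advanced as hits.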

Tested on: Salmonella enterica serovar Typhimurium SL1344
Experiment: bacterial growth OD600 after 18 h with compound and polymyxin B; higher = more bacterial growth (less inhibition)
Settings: 50 µM, Mueller-Hinton broth

| SMILES | bacterial growth OD600 (polymyxin B 0.75 µg/mL) | bacterial growth OD600 (polymyxin B 1 µg/mL) |
| --- | --- | --- |
| CC(C)CN1CCC(C2CCN(Cc3nccs3)C2)CC1 (stereo not given) | 0.894 |  |
| COc1ccc(NC2CCCN(C(=O)c3cc4ccccc4o3)C2)cc1 (stereo not given) |  | 0.703 |
| CN(CC1CCOCC1)C(=O)C1CCC(=O)N(CC2CCCCC2)C1 (stereo not given) |  | 1.12 |
| Cc1ccc(CN(C)C(=O)c2ccccc2OC2CCN(Cc3ccccn3)CC2)o1 |  | 0.977 |
| CC(=O)N[C@@H]1c2ccccc2C2(CCN(Cc3nc4ccccc4n3C)CC2)[C@H]1OCc1ccccc1 | 0.773 |  |
| COCC(=O)Nc1cc(C(=O)NC2Cc3ccccc3C2)cc2ncn(CCc3ccccc3)c12 | 0.814 |  |
| CCOC(=O)C1(Cc2ccccc2F)CCCN(Cc2cn(CC(N)=O)c3ccccc23)C1 (stereo not given) |  | 1.28 |
| CN(CC(O)c1ccccc1)C(=O)CC1(c2ccccc2Cl)CC(=O)N(C2CCCC2)C1=O (stereo not given) | 0.005 |  |
| O=C(NCc1cccnc1)C1CCN(C2CCN(CCCC(F)(F)F)CC2)CC1 |  | 0.888 |
| OCCC1CN(Cc2cccc3nonc23)CCN1Cc1ccccc1F (stereo not given) |  | 0.769 |
| O=C(Cc1ccc(N2CCC(NCCOc3cccnc3)CC2)cc1)NCCc1cccc(F)c1 | 0.791 |  |
| Cc1nc(-c2ccncc2)ncc1C(C)NCc1cccn1-c1ncccn1 (stereo not given) | 0.788 |  |
| COC(=O)CCC(=O)N1CCCC(CCC(=O)Nc2cc(Cl)ccc2OC)C1 (stereo not given) |  | 0.883 |
| O=C(CC1=CCCCC1)N1CCC(C2(c3cccnc3)NC(=O)N(CCc3cccs3)C2=O)CC1 (stereo not given) | 0.833 |  |
| CC(C)NC1CC(=O)N(CCc2ccc(F)cc2)C1 (stereo not given) |  | 0.864 |
| CN(Cc1nccn1C)C(=O)c1csc2nc(-c3cccc(F)c3)cn12 |  | 0.042 |
| CCOC(=O)C1(CC2CC2)CCN(S(=O)(=O)c2cc(Cl)ccc2OC)CC1 |  | 0.609 |
| CC(CN1CCC(N2CCC(C(=O)NCc3cccnc3)CC2)CC1)c1ccccc1 (stereo not given) |  | 0.768 |
| COc1ccc(-n2cc(CNCC3COCCO3)c(-c3ccccc3Cl)n2)cc1 (stereo not given) |  | 0.883 |
| CCOC(=O)N1CCN(C(=O)c2ccc(N3CCC(N(C)Cc4ccn[nH]4)CC3)cc2)CC1 | 0.821 |  |
| CN(CC1CCN(CCc2cccc(F)c2)CC1)C(=O)c1cc(C2CC2)n[nH]1 |  | 0.91 |
| CC(C)c1noc(-c2ccc(N3CCSCC3)nc2)n1 |  | 1.25 |
| CCN(CC)C1CCN(c2nc3nonc3nc2N2CCOCC2)C1 (stereo not given) | 0.655 |  |
| CCN1CCCC1CNC1CCN(c2ccc(NC(=O)c3cccc(Cl)c3)cc2)CC1 (stereo not given) | 0.829 |  |
| COCc1nc2cc(C(F)(F)F)ccc2n1C1CCN(C(=O)Cc2csc(-c3ccccc3)n2)CC1 | 0.005 |  |
| Cc1cc(C)n(-c2cccc(CN(C)C(=O)Cn3nnnc3CN3CCOCC3)c2)n1 | 0.806 |  |
| COCC1CCCN(C(=O)CCc2nnc(Cc3ccc(-c4ccccc4)cc3)o2)C1 (stereo not given) |  | 1.14 |
| Cc1c(CNC2CCCc3nc(N4CCC(CO)CC4)ncc32)cnn1C (stereo not given) | 0.814 |  |
| COc1ccc(-n2ncc3c2CC(C)(C)CC3NC2CCOCC2)cc1 (stereo not given) |  | 1 |
| CCN(Cc1cnn(CC)c1)CC1CCCN(CCc2cccc(OC)c2)C1 (stereo not given) | 0.854 |  |

Looked up above:
O=C(Cc1ccc(N2CCC(NCCOc3cccnc3)CC2)cc1)NCCc1cccc(F)c1 | bacterial growth OD600 (polymyxin B 0.75 µg/mL): 0.791
O=C(CC1=CCCCC1)N1CCC(C2(c3cccnc3)NC(=O)N(CCc3cccs3)C2=O)CC1 (stereo not given) | bacterial growth OD600 (polymyxin B 0.75 µg/mL): 0.833
